In the supplement of paper PMC12823440, “Inhibitors supercharge kinase turnover through native proteolytic circuits” (Nature, 2025):
The other results are listed elsewhere or left out. Hit calls seldom repeat between salt and free forms of one compound.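 In K562 cells expressing nanoluciferase-fused kinases, luminescence was recorded at 4 h intervals between 2 and 18 h, normalized as percent of control with DMSO at 100% and a positive control at 0%. A significant (2 sigma) signal drop marks a time point as decreased. The authors' rule for a hit is not shown and takes in more than the number of time points.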

Chains of the proteins cited; added tags and fusions are not shown. Lines headed by an entry give the natural chain unless they say otherwise; changes in a name come on top.
UniProt Q9UM73: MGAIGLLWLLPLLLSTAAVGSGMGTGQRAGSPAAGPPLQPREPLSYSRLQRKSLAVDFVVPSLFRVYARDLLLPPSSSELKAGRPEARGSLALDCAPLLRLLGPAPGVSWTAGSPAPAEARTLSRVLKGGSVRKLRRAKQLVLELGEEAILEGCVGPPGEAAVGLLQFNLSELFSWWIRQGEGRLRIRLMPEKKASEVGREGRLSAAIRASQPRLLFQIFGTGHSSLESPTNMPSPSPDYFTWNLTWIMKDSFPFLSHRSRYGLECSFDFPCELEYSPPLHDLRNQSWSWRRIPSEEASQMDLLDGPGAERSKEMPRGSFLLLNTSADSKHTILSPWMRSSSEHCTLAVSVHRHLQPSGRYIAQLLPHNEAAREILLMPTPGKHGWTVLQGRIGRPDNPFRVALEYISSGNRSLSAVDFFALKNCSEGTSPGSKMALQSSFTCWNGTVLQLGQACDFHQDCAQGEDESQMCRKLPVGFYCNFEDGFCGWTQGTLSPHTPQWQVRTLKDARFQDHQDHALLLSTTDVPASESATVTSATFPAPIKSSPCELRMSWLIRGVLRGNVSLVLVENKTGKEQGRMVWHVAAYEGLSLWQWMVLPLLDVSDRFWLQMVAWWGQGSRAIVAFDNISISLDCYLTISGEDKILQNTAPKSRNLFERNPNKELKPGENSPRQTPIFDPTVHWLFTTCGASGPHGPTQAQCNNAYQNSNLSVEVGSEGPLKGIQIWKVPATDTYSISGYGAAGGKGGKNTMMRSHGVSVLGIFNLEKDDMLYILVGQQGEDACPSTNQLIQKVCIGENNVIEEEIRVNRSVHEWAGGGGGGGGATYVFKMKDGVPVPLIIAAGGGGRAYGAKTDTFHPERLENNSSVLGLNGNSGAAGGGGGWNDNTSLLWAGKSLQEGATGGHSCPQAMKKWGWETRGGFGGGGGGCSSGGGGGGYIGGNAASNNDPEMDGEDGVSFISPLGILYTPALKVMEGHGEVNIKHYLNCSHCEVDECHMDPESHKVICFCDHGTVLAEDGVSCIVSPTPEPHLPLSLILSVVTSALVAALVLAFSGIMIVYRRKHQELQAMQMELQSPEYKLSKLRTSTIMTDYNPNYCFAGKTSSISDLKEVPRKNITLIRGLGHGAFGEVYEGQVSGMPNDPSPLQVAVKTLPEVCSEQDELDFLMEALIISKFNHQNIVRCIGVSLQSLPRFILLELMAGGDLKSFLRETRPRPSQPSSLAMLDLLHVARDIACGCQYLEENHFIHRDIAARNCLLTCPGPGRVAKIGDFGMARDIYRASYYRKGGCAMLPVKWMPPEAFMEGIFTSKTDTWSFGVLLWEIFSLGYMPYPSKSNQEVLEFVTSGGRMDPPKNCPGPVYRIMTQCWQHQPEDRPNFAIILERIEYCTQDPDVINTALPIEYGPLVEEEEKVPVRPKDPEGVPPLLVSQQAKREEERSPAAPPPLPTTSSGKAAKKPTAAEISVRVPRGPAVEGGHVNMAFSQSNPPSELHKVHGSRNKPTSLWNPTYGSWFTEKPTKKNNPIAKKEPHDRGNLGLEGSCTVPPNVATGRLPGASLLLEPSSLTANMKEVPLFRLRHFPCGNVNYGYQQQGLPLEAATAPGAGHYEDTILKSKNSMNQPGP
UniProt Q96GD4, whole entry: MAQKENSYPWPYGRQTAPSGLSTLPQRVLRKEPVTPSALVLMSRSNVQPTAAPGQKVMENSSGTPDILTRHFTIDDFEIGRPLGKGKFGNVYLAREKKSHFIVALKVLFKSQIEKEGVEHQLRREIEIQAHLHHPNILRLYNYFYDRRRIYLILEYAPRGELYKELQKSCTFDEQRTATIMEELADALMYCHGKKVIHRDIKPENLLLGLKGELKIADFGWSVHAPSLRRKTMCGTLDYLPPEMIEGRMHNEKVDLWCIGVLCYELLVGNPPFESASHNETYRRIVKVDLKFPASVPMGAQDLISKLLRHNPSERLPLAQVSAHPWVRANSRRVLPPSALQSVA
UniProt P51451: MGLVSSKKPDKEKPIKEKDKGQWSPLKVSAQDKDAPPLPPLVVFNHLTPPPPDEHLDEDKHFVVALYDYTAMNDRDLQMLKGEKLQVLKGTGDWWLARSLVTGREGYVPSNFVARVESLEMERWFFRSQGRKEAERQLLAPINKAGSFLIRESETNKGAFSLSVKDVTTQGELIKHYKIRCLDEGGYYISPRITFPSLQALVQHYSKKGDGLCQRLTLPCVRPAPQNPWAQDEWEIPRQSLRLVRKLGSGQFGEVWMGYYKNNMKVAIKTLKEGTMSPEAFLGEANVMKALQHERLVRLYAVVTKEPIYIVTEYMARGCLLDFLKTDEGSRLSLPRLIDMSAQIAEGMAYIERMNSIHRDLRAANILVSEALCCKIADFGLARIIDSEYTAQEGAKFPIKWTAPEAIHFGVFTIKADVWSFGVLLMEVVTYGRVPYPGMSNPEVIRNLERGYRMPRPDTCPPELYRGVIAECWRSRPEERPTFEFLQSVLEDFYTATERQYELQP
UniProt P51813: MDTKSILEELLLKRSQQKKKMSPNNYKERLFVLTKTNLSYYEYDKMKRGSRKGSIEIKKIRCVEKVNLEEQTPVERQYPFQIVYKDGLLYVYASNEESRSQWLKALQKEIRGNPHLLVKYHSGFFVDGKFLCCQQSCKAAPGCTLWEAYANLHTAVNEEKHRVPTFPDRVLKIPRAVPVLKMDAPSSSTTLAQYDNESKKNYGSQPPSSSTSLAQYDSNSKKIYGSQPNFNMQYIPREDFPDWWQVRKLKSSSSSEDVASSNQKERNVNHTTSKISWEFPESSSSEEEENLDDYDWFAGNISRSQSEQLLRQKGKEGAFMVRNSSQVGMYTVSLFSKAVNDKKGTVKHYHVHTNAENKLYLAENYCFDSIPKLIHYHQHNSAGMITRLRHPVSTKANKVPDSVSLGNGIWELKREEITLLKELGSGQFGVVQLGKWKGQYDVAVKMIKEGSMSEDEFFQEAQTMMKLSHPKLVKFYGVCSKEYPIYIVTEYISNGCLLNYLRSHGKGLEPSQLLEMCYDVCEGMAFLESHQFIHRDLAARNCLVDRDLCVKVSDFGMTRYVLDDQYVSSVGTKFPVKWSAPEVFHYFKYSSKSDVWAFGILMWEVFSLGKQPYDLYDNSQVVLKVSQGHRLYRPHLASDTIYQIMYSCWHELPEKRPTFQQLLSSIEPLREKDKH
UniProt P15056, whole entry, looked up: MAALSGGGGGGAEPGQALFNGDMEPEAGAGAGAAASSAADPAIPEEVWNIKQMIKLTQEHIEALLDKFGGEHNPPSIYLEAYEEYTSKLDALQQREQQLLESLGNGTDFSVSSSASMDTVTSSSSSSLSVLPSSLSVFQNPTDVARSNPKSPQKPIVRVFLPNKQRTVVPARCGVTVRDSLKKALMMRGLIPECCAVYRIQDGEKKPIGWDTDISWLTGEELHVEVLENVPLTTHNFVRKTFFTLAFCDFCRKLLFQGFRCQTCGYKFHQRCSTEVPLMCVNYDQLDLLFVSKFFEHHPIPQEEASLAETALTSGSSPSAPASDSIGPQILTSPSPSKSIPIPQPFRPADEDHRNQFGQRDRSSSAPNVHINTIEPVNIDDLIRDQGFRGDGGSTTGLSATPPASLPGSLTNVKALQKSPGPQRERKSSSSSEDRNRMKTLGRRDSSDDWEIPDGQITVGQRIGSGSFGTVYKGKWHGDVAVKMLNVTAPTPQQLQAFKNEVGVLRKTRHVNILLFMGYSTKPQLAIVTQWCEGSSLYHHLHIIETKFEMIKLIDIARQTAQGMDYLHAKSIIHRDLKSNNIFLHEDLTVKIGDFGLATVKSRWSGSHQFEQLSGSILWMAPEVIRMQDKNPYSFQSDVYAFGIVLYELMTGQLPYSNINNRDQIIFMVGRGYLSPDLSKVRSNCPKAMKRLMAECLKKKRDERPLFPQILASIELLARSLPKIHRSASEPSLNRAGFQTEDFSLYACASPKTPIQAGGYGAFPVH
UniProt Q06187: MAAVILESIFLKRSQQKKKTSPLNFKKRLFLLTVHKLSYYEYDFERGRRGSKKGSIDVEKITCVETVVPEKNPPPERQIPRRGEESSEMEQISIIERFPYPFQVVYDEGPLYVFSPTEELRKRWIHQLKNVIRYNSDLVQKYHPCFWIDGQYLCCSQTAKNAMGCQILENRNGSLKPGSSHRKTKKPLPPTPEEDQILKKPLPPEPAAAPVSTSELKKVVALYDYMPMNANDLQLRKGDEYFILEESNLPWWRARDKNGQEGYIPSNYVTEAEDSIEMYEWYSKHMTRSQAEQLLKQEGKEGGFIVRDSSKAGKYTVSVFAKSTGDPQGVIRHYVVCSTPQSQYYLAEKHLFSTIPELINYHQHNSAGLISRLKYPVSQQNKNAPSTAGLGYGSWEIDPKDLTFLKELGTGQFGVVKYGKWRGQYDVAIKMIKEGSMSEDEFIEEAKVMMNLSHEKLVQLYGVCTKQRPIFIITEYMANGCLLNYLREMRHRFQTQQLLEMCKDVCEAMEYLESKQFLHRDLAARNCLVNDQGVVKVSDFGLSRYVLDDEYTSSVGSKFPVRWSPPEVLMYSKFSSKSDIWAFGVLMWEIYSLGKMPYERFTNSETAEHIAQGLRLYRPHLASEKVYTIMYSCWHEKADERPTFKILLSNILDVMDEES
UniProt Q13555: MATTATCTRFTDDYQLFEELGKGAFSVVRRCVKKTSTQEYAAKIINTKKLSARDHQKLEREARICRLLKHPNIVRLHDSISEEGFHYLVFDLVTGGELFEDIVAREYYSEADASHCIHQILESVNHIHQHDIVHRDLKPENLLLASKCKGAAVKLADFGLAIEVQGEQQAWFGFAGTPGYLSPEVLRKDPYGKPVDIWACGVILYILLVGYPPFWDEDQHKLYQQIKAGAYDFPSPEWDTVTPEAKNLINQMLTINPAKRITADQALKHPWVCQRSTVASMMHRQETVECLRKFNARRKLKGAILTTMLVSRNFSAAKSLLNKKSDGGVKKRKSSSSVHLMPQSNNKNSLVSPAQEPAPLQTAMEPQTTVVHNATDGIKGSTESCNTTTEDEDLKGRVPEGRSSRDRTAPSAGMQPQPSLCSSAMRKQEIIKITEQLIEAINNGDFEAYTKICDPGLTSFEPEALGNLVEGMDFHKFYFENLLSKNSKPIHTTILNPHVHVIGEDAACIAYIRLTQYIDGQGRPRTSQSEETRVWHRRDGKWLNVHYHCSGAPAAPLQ
UniProt Q00535, whole entry, looked up: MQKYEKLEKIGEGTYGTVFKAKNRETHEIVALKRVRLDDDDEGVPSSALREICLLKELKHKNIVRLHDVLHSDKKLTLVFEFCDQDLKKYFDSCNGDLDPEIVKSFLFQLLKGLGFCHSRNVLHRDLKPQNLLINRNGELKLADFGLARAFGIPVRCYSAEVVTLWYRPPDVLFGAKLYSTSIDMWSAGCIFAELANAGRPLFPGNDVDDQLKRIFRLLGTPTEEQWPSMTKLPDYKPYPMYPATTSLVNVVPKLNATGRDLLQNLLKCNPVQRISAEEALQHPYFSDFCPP
UniProt O96017, whole entry: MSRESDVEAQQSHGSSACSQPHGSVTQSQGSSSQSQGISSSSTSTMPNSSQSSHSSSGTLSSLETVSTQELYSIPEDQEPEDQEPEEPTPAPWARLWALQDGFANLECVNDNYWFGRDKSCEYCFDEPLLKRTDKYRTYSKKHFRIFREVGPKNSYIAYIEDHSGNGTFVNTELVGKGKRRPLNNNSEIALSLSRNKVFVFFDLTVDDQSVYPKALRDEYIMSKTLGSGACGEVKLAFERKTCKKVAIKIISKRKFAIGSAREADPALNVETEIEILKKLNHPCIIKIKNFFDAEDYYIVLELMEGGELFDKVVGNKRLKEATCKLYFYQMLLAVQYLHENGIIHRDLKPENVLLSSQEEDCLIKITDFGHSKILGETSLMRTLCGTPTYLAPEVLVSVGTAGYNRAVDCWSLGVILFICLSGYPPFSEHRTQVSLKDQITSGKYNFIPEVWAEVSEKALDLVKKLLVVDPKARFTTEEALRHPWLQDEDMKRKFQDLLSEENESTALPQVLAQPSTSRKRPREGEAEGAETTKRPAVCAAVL
UniProt P41240: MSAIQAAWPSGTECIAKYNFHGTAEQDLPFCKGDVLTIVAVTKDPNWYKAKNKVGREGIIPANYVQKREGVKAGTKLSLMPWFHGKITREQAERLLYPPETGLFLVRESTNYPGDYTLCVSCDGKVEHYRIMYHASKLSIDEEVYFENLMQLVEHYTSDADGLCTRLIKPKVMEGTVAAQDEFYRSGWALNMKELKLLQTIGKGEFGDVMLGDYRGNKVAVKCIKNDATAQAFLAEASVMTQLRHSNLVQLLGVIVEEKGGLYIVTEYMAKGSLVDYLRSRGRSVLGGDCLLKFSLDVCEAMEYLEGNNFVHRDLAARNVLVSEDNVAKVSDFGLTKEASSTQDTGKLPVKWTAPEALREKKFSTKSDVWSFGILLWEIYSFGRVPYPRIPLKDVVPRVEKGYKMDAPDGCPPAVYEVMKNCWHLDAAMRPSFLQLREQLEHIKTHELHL

How the values were obtained:
Assay in all cases: number of time points (of 5) at which kinase-Nluc abundance scored as decreased, DMSO-normalised (count); higher = more persistent destabilization
Conditions in all cases: K562; 2-18 h
ALK = ALK (UniProt Q9UM73)
ARAF = ARAF (UniProt P10398)
AURKA = AURKA (UniProt O14965)
AURKB = AURKB (UniProt Q96GD4)
AURKC = AURKC (UniProt Q9UQB9)
BLK = BLK (UniProt P51451)
BMX = BMX (UniProt P51813)
BRAF = BRAF (UniProt P15056)
BRAF_V600E = test system: BRAF_V600E
BTK = BTK (UniProt Q06187)
CAMK2A = CAMK2A (UniProt Q9UQM7)
CAMK2G = CAMK2G (UniProt Q13555)
CDK10 = CDK10 (UniProt Q15131)
CDK2 = CDK2 (UniProt P24941)
CDK3 = CDK3 (UniProt Q00526)
CDK5 = CDK5 (UniProt Q00535)
CDK6 = CDK6 (UniProt Q00534)
CHEK2 = CHEK2 (UniProt O96017)
CSF1R = CSF1R (UniProt P07333)
CSK = CSK (UniProt P41240)

SMILES	number of time points (ALK)	number of time points (ARAF)	number of time points (AURKA)	number of time points (AURKB)	number of time points (AURKC)	number of time points (BLK)	number of time points (BMX)	number of time points (BRAF)	number of time points (BRAF_V600E)	number of time points (BTK)	number of time points (CAMK2A)	number of time points (CAMK2G)	number of time points (CDK10)	number of time points (CDK2)	number of time points (CDK3)	number of time points (CDK5)	number of time points (CDK6)	number of time points (CHEK2)	number of time points (CSF1R)	number of time points (CSK)
Cn1cc(Nc2nccc(N3C[C@H]4CC[C@@H](C3)N4C(=O)[C@@H]3CC3(F)F)n2)cn1 (10 µM)	0	0	0	0	0	0	0	0	0	0	0	0	0	0	0	0	0	0	0	0
CN(CCNc1ccc2ncc(-c3ccc(C(N)=O)cc3)n2n1)C(=O)OC(C)(C)C (10 µM)	0	0	0	0	0	0	3	1	0	0	0	0	0	0	0	0	0	0	0	0
COc1ccc(C(=C2C(=O)Nc3ccccc32)c2ccc(OC)cc2)cc1 (10 µM)	0	0	0	0	0	0	0	0	0	0	0	0	0	0	0	0	0	0	0	0
COc1ccc(C(=O)Nc2sc3c(c2C(N)=O)CCCC3)cc1OC (10 µM)	0	0	0	0	0	0	0	0	0	0	0	0	0	0	0	0	0	0	0	0
CNc1nc(Nc2cnn(C3CCN(C4COC4)CC3F)c2Cl)ncc1C(F)(F)F (stereo not given) (10 µM)	0	0	0	0	0	0	0	0	0	0	0	0	0	0	0	0	0	0	0	0
COC1(C(=O)N2Cc3nc(Cl)nc(N[C@H](C)c4cc(N)cc(C(F)(F)F)c4)c3C2)CCOCC1 (10 µM)	0	0	0	0	0	0	0	0	0	0	0	0	0	0	0	0	0	0	0	0
CS(=O)(=O)c1ccc(-c2noc(C(F)(F)F)c2-c2ccccc2)cc1 (10 µM)	0	0	0	0	0	0	0	0	0	0	0	0	0	0	0	0	0	0	0	0
COc1ccc([C@@H]2CC(=O)c3c(O)cc(O)cc3O2)cc1O [Hesperetin] (10 µM)	0	0	0	0	0	0	0	0	0	0	0	0	0	0	0	0	0	0	0	0
Nc1ncnc2c1c(-c1ccc(Oc3ccccc3)cc1)nn2C1CCCNC1 (racemic) (2.5 µM)	0	0	0	0	0	0	0	0	0	0	0	0	0	0	0	0	0	0	0	0
COC1(c2sc3c(N4CCOCC4)nc(-c4cnc(N)nc4)nc3c2C)COC1 (2.5 µM)	1	0	0	0	0	0	1	0	0	0	0	0	0	0	0	0	0	0	0	0
Cc1c(CN2CCN(S(C)(=O)=O)CC2)sc2c(N3CCOCC3)nc(-c3cnc(N)nc3)nc12 (2.5 µM)	0	0	0	0	0	0	3	3	0	1	0	0	0	0	0	0	2	0	0	0
C[C@@H]1C(=O)O[C@H](C)[C@H]1C[C@@H](O)[C@](C)(O)[C@H]1CC[C@@]2(O)C3=CC(=O)[C@@H]4C[C@@H](O)[C@@H](O)C[C@]4(C)[C@H]3CC[C@]12C [Cyasterone] (10 µM)	0	0	0	0	0	0	0	0	0	0	0	0	0	0	0	0	0	0	0	0
Cc1cc(NC(=O)c2cccc(NC(=O)/C=C/CN(C)C)c2)ccc1Nc1nccc(-c2cccnc2)n1 (10 µM)	1	0	0	0	0	0	1	0	0	0	0	0	0	0	0	0	0	0	0	0
CC(C)(C)c1ccc(S(=O)(=O)Nc2ccc(-n3ccnc3)cc2)cc1 (10 µM)	0	0	0	0	0	0	0	0	0	0	0	0	0	0	0	0	0	0	0	0
Cc1ccc(Oc2nc3cc(-c4ccc5c(ccn5C)c4)c(Cl)cc3[nH]2)cc1C(=O)O (10 µM)	0	0	0	0	0	0	0	0	0	0	0	0	0	0	0	0	0	0	0	0
C=C1C(=O)O[C@@H]2C[C@@]3(C)CCC[C@H](C)C3=C[C@H]12 [Alantolactone] (10 µM)	0	0	0	0	0	0	0	0	0	0	0	0	0	0	0	0	0	0	0	0
Nc1cc(Nc2ccc(S(N)(=O)=O)cc2)ncn1 (10 µM)	0	0	0	0	0	0	0	0	2	0	0	0	0	0	0	0	0	0	0	0

Looked up above.
For number of time points (CAMK2G), Nc1ncnc2c1c(-c1ccc(Oc3ccccc3)cc1)nn2C1CCCNC1 (racemic) (2.5 µM) reads 0
For number of time points (BMX), COc1ccc(C(=C2C(=O)Nc3ccccc32)c2ccc(OC)cc2)cc1 (10 µM) reads 0
